Drawing on PubChem BioAssay AID1487 (National Center for Advancing Translational Sciences (NCATS), 2009), this text covers AC50 for 36 molecules.

This assay is described as follows: qHTS Assay for Modulators of Lamin A Splicing. Conditions: HeLa LMNA splicing GFP/RFP minigene ratio, 48 h. In short, it runs like this: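 S3 HeLa stable clones carrying a lamin A-EGFP splicing minigene plus DsRed2 were seeded at 600 cells/well in Opti-MEM with 2% FBS, pin-dosed and incubated 48 h at 37°C. Acumen cytometry (488 nm) gave the GFP/RFP total-intensity ratio.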
On the technique in general: qHTS replaces the single test concentration by a dilution series.

The mark [1] stands for this setting: measured here: RFP viability control channel.
The mark [2] stands for this setting: measured here: GFP splicing reporter channel.

This is one part of the list. The main result of the screen is listed elsewhere. These columns were measured beside it and carry no call. The list favours compounds with an active or inconclusive main result. Potencies come from curve fits of mixed quality, noted in brackets.

In the case of `Cc1[nH]c2ccccc2c1SCCNC(=O)c1ccc(Br)o1`, the concentration at half-maximal activity (AC50) (as a rule, the midpoint of the concentration-response curve, whichever way the signal moves) under setting [1] was 31.6 µM [rising, single point].
Same read-out and setting: the same measure for `Cc1ccc(Cl)cc1N1CCN(CCCNC(=O)C2COc3ccccc3C2)CC1` (stereo not given): 7.08 µM [falling, full curve, poor fit]; for `CN(C(=S)Nc1cccnc1)c1ccc(O)cc1`: 35.5 µM [rising, single point]; for `COc1ccc(-n2c(C)cc(/C=C3\C(=O)NN(c4ccccc4)C3=O)c2C)cc1`: 14.1 µM [rising, single point].
The same measure, in the same setting: the same measure for `COc1ccc(N(C(=O)COc2ccc(C)cc2)S(=O)(=O)c2ccc(C)cc2)cc1`: 8.91 µM [rising, partial curve].
For `COc1ccc(C(=O)Nc2ccc(C3(C#N)CCCC3)cc2)cc1`, the AC50 is 0.562 µM [falling, full curve, poor fit] under setting [2] and 0.501 µM [falling, full curve, poor fit] under setting [1].
In the case of `Cc1cccc(CSCc2ccc(C(=O)NCCc3ccccc3)o2)c1`, the half-maximal activity concentration (AC50) was 0.1 µM [falling, full curve] under setting [2] and 0.112 µM [falling, full curve] under setting [1].
As to `CCc1ccc(NC(=O)N(CCCN2CCOCC2)C(C)c2cc3cccc(OC)c3o2)cc1` (stereo not given), the AC50 under setting [1] was 5.62 µM [rising, full curve].
For the molecule `Cn1c(N)c(C(=O)COC(=O)c2ccc(Cl)nc2)c(=O)n(C)c1=O`, the half-maximal activity concentration (AC50) is 20 µM [falling, partial curve] under setting [2] and 7.94 µM [falling, partial curve] under setting [1].
`CSCc1ccc(C(=O)Nc2cc(C)cc(C)c2)cc1`: the concentration at half-maximal activity (AC50) under setting [1] was 35.5 µM [rising, single point].
Turning to `COc1ccc(CNC(=O)c2cccnc2Sc2ccc(C)c(C)c2)cc1`, the AC50 reads like this: under setting [2], 0.0126 µM [falling, full curve, poor fit]; under setting [1], 0.0224 µM [falling, partial curve, poor fit].
As for `CN(Cc1c(C(=O)N(C)Cc2ccccc2)nc2ccccn12)CC1Cc2ccccc2O1` (stereo not given), the half-maximal activity concentration (AC50) reads like this: under setting [2], 2.24 µM [rising, partial curve, poor fit]; under setting [1], 2.82 µM [rising, partial curve, poor fit].
Consider `CS(=O)(=O)n1nc(-c2ccc(Cl)cc2)nc1SCc1ccccc1`, for which, under setting [1], the concentration at half-maximal activity (AC50) is 31.6 µM [rising, single point].
Take `CCOc1cc(-c2ccc(OC(=O)c3ccc(C)cc3)c(OC)c2)cc(=O)c2c(C)oc(C)c12`: the AC50 under setting [2] is 0.282 µM [falling, full curve, poor fit].
Turning to `COc1ccc(CC(=O)Nc2ccc(S(=O)(=O)NCC3CCCO3)cc2)cc1` (stereo not given), under setting [1], the AC50 was 10 µM [rising, partial curve].
On to `COc1ccc(NC(=O)Cn2ncc(Cl)c(Cl)c2=O)cc1S(=O)(=O)N1CCOCC1`, for which the half-maximal activity concentration (AC50) under setting [1] is 35.5 µM [rising, single point].
With `CCCN(CCC)C(=O)CSc1nc2n[nH]c(C)c2c(=N)n1-c1ccc(OC)cc1`, the half-maximal activity concentration (AC50) under setting [2] was 11.2 µM [rising, single point] and the AC50 under setting [1] is 12.6 µM [rising, single point].
Regarding `Cc1cc(NC(=O)c2ccc(N(C)S(=O)(=O)c3ccccc3)cc2)no1`, the AC50 under setting [1] was 15.8 µM [rising, single point].
For `CCOc1cc(C(=O)Nc2ccc(-c3nc4ccccc4s3)cc2Cl)cc(OCC)c1OCC`, the concentration at half-maximal activity (AC50) under setting [2] was 0.794 µM [falling, full curve, poor fit].
Consider `CCOc1ccc(NC(=O)CSc2nc3ccccc3c(=O)n2CCNC(C)=O)cc1`, for which the concentration at half-maximal activity (AC50) under setting [2] was 1.41 µM [falling, full curve, poor fit] and the AC50 under setting [1] is 2 µM [falling, full curve, poor fit].
Turning to `COc1cccc(NS(=O)(=O)c2ccc3[nH]cc(C(=O)NCCC(C)C)c(=O)c3c2)c1`, the AC50 under setting [1] is 17.8 µM [falling, partial curve].
The same measure, in the same setting: the same measure for `Cc1cc(C)c(-c2csc(NC(=O)c3n[nH]c(=O)c4ccccc34)n2)c(C)c1`: 17.8 µM [rising, partial curve].
The same measure, in the same setting: the same measure for `Cc1ccc(CNC(=O)c2c(C)oc3nc(C)nc(N4CCOCC4)c23)cc1`: 0.00631 µM [rising, full curve, poor fit]; for `Cc1nn(C)c(C)c1N1C(=O)c2cccc3c(Br)ccc(c23)C1=O`: 11.2 µM [rising, partial curve].
As to `O=C(CN1C2=NCCCN2c2ccccc21)c1ccc([N+](=O)[O-])cc1`, the AC50 under setting [2] is 0.0224 µM [falling, full curve, poor fit].
With `COc1ccccc1N1C(=O)CC1(C#N)c1ccc(OCc2ccccc2)cc1` (stereo not given), the AC50 by setting is: under setting [2], 10 µM [rising, partial curve, poor fit]; under setting [1], 20 µM [rising, partial curve].
On to `CCCS(=O)(=O)N1CCC(C(=O)NCc2ccc(F)cc2)CC1`, for which, under setting [1], the AC50 was 2.82 µM [falling, partial curve, poor fit].
As for `CSc1cc(-c2ccc(Cl)cc2)c(C(=O)NN)s1`, the concentration at half-maximal activity (AC50) under setting [2] was 25.1 µM [falling, single point].
For `Nc1c(N2CCN(c3ccccc3)CC2)c2ccccc2oc1=O`, the AC50 under setting [1] is 35.5 µM [rising, single point].
Still for that read-out and setting: as for `CCOC(=O)c1[nH]c2ccccc2c1NC(=O)Nc1ccc(OC)cc1`, the figure is 3.16 µM [rising, partial curve].
Still for that read-out and setting: the same measure for `Cn1c(O)c(N=NC(=O)c2cc(-c3cccs3)nc3ccccc23)c2ccccc21`: 0.0794 µM [rising, full curve, poor fit].
Take `Cc1cccc(NC(=O)c2ccc(N3CCOCC3)c([N+](=O)[O-])c2)n1`: the AC50 under setting [2] is 25.1 µM [falling, single point].
Regarding `CC(O/N=C/c1ccc(OC(F)F)cc1)C(=O)Nc1cccc(S(=O)(=O)N2CCOCC2)c1` (stereo not given), the concentration at half-maximal activity (AC50) under setting [1] is 35.5 µM [rising, single point].
Consider `COC(=O)c1c(NC(=S)NN2CCN(C)CC2)sc2c1CCC(C)C2` (stereo not given), for which the AC50 under setting [2] is 35.5 µM [falling, single point] and the AC50 under setting [1] was 35.5 µM [falling, single point].
Regarding `CCNc1ncc2nc(-c3cn(C)c4ccccc34)c(=O)n(Cc3cccc(OC)c3)c2n1`, the AC50 under setting [2] was 0.794 µM [falling, full curve].
Take `CCc1nnc(NC(=O)CSc2nnc(C3CCCCC3)n2-c2ccccc2)s1`: under setting [2], the half-maximal activity concentration (AC50) was 12.6 µM [rising, partial curve].
